PubChem BioAssay AID1508597 – Cure First, 2020

- Aim: 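Survival screen with siRNA in ovarian cancer cells derived from patients, with or without rucaparib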 (primary screen)
- Cell system: human ovarian carcinoma lines grown from tumours: OCI-P5x (papillary serous) and OCI-C5x (clear cell)
- Reagent: siRNA pool against human genes, 1.25 pmol siRNA per well
- Timing: 72 h or 96 h, depending on the cell culture
- Challenge: rucaparib 20 µM (about IC30) or vehicle, present until read-out
- Rucaparib or vehicle: Rucaparib
- Cell line: OCI-C5x (clear cell)
- Detection: 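Luminescent ATP-based viability assay read 72 or 96 h after transfection, depending on culture, given as normalised percent viability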
- Reading the numbers: viability, normalised: higher = more viable cells remaining
- Call rule: 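Active when normalised viability falls below 80 percent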
- Calls: active = viability under 80%; inactive = viability 80% or more
Shown is an unselected part of the about 2,100 reagents, in one setting of the screen. 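Calls flag viability under 80% in either arm, not effects specific to rucaparib; the reference for percent is not stated.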 Entries without a mark were called inactive. Some reagents were tested in more than one well and are listed for each. Reagent sequences are not shown. Not stated in the record: the 100% reference.

Gene,technical replicate,"viability, normalised (%)"
RUVBL2,1,72.5 (active)
RUVBL2,1,62.8 (active)
RUVBL2,2,46.4 (active)
RUVBL2,2,64.3 (active)
RUVBL2,3,66.4 (active)
RUVBL2,3,52.3 (active)
LMTK3,1,50.4 (active)
LMTK3,2,61.5 (active)
LMTK3,3,58.9 (active)
PHKA1,1,66 (active)
PHKA1,2,57.9 (active)
PHKA1,3,50.9 (active)
BID,1,89.7
BID,2,38.5 (active)
BID,3,30 (active)
MCL1,1,35.7 (active)
MCL1,2,36.4 (active)
MCL1,3,38.1 (active)
APTX,1,68.9 (active)
APTX,2,53.5 (active)
APTX,3,88.7
WWTR1,1,45 (active)
WWTR1,2,43.3 (active)
WWTR1,3,60.8 (active)
HECTD3,1,65.8 (active)
HECTD3,2,88.2
HECTD3,3,76.8 (active)
SHPK,1,57.9 (active)
SHPK,2,63.2 (active)
SHPK,3,66.8 (active)
RPIA,1,47.1 (active)
RPIA,2,54.7 (active)
RPIA,3,55.7 (active)
BBC3,1,74.5 (active)
BBC3,2,40 (active)
BBC3,3,45.8 (active)
ADAM9,1,35 (active)
ADAM9,2,25.9 (active)
ADAM9,3,26.3 (active)
AGRN,1,45.3 (active)
AGRN,2,42.7 (active)
AGRN,3,50 (active)
STRADA,1,66.8 (active)
STRADA,2,49.3 (active)
STRADA,3,41 (active)
PCDHB4,1,47.4 (active)
PCDHB4,2,37.7 (active)
PCDHB4,3,39.3 (active)
PRDM11,1,52.2 (active)
PRDM11,2,56.6 (active)
PRDM11,3,47 (active)
PRKCB,1,38.2 (active)
PRKCB,1,33.3 (active)
PRKCB,2,28.5 (active)
PRKCB,2,31.9 (active)
PRKCB,3,34.2 (active)
PRKCB,3,30.5 (active)

Targets listed so far whose gene name begins with B or b:
Gene,technical replicate,"viability, normalised (%)"
BID,1,89.7
BID,2,38.5 (active)
BID,3,30 (active)
BBC3,1,74.5 (active)
BBC3,2,40 (active)
BBC3,3,45.8 (active)
